Test results taken from the supplement of paper PMC10849652.
The other results are listed elsewhere or left out.

The chains behind the UniProt entries cited, without tags or fusion partners. Where a name states a change or a piece, a line headed by the entry shows the natural chain unless it says otherwise.
UniProt Q9UHF7: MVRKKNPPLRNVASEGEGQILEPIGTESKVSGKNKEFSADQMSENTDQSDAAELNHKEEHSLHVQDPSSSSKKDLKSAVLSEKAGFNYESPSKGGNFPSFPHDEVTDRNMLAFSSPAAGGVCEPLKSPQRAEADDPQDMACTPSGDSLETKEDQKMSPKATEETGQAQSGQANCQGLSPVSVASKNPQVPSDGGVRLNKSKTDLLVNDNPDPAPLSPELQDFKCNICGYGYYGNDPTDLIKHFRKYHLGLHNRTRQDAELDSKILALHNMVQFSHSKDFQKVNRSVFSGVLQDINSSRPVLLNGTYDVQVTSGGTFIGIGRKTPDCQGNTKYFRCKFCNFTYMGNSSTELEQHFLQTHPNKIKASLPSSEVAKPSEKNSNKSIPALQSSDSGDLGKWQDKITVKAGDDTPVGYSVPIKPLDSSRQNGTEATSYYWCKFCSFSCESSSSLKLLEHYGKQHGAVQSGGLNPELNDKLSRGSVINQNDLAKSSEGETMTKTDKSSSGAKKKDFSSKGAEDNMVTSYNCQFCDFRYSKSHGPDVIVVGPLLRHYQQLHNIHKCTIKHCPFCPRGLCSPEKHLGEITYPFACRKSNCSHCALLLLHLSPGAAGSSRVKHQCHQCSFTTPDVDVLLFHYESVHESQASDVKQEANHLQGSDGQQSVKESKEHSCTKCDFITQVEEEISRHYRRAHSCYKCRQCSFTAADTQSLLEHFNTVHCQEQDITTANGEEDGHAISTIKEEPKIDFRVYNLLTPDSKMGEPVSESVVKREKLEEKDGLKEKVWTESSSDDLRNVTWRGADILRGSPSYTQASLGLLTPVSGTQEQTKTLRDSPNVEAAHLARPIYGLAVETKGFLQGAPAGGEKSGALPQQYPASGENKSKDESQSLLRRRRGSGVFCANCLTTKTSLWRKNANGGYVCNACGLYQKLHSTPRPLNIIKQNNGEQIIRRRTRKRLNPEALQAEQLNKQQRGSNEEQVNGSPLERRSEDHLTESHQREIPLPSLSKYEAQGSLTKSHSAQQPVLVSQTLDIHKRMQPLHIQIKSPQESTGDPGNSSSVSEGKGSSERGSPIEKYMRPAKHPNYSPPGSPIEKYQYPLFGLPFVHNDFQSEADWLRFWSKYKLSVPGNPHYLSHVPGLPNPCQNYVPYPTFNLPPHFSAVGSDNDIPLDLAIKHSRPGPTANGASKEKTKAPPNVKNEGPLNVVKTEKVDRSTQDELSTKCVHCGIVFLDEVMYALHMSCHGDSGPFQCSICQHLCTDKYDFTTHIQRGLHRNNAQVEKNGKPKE
UniProt O75865, whole entry, looked up: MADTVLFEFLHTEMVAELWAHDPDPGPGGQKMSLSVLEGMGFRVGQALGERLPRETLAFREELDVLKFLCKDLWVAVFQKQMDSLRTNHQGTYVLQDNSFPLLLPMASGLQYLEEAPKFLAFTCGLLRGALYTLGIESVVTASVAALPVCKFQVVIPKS
UniProt Q15628: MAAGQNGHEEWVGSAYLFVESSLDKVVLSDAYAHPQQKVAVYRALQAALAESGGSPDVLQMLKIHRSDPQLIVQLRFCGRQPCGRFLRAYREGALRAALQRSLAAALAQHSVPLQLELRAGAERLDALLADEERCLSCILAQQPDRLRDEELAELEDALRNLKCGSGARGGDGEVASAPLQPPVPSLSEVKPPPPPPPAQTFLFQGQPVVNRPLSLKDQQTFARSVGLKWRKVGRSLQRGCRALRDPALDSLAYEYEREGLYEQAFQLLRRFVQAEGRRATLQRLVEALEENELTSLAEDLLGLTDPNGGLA
UniProt Q07912: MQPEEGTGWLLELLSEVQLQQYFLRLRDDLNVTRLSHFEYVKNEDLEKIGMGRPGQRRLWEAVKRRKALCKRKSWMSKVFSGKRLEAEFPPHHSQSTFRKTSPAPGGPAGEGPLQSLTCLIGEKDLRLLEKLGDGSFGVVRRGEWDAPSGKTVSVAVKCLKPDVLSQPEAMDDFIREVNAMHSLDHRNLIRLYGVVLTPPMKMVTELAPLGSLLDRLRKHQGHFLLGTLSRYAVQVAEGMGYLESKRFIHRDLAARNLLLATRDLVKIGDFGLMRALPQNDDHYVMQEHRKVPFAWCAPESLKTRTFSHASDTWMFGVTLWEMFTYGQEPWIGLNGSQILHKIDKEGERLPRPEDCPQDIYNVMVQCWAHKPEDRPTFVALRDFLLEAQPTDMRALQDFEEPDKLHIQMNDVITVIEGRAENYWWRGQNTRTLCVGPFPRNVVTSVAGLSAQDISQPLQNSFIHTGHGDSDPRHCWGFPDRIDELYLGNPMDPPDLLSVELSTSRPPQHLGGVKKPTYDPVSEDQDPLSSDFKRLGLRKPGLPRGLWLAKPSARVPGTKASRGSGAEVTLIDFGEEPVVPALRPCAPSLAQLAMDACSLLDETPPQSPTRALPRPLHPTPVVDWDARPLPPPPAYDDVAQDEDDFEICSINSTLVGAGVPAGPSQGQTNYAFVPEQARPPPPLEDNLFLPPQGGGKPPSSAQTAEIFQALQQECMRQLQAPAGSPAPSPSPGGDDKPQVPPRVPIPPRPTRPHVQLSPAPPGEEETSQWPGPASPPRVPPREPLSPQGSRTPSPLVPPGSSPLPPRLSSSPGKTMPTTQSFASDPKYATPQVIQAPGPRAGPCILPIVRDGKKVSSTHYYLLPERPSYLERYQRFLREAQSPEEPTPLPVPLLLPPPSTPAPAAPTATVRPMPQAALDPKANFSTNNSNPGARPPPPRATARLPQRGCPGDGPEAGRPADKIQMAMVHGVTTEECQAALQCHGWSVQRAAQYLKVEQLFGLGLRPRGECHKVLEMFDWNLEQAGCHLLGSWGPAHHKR
UniProt Q14669: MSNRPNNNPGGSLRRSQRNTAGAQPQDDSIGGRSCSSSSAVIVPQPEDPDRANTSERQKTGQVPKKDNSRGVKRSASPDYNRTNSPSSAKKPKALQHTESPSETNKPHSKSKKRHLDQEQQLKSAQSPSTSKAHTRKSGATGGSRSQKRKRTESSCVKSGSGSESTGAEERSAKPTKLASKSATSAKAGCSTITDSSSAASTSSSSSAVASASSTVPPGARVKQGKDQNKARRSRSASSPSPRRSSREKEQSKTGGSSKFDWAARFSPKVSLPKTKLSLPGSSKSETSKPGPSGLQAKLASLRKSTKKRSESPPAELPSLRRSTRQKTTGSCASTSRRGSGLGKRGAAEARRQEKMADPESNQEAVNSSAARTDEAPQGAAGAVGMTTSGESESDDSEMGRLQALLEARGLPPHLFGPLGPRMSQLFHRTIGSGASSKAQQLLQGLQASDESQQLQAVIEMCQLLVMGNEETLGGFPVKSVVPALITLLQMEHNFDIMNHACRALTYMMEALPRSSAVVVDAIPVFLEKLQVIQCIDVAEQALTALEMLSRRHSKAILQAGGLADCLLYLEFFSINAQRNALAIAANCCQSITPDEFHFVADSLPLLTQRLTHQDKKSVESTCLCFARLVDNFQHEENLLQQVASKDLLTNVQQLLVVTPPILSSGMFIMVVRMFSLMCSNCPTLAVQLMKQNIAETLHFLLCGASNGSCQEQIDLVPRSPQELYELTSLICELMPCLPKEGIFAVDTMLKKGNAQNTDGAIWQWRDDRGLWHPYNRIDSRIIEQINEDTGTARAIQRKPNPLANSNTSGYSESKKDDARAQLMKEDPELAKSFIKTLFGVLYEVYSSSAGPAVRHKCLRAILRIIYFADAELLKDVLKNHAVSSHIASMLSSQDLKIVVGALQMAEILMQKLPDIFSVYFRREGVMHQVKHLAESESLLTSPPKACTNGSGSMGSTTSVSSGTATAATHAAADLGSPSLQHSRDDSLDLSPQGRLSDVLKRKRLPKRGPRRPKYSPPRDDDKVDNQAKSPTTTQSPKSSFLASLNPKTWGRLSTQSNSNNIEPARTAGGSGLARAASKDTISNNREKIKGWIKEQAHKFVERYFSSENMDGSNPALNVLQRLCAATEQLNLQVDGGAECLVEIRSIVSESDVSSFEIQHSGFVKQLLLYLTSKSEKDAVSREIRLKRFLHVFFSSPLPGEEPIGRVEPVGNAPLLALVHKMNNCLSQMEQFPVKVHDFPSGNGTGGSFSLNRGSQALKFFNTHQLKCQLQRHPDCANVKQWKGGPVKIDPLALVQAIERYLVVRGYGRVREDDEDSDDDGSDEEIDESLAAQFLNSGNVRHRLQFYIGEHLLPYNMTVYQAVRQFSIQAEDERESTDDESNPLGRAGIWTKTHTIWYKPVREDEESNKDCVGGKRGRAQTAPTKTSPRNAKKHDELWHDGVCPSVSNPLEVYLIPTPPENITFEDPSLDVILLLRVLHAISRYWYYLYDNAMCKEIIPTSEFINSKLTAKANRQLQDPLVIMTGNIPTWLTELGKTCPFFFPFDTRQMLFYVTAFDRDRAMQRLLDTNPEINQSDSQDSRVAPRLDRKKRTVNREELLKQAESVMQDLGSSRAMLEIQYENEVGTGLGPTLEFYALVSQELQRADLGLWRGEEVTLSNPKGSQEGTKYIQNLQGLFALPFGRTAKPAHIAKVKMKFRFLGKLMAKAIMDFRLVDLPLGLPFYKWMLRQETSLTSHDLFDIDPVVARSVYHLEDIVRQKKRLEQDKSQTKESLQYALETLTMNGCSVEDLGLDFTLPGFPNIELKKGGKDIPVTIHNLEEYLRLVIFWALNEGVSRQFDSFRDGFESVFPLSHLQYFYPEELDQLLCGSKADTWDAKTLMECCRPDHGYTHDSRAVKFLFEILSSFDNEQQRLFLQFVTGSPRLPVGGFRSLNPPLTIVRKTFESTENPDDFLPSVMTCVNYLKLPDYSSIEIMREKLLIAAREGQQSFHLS
UniProt Q8TD43: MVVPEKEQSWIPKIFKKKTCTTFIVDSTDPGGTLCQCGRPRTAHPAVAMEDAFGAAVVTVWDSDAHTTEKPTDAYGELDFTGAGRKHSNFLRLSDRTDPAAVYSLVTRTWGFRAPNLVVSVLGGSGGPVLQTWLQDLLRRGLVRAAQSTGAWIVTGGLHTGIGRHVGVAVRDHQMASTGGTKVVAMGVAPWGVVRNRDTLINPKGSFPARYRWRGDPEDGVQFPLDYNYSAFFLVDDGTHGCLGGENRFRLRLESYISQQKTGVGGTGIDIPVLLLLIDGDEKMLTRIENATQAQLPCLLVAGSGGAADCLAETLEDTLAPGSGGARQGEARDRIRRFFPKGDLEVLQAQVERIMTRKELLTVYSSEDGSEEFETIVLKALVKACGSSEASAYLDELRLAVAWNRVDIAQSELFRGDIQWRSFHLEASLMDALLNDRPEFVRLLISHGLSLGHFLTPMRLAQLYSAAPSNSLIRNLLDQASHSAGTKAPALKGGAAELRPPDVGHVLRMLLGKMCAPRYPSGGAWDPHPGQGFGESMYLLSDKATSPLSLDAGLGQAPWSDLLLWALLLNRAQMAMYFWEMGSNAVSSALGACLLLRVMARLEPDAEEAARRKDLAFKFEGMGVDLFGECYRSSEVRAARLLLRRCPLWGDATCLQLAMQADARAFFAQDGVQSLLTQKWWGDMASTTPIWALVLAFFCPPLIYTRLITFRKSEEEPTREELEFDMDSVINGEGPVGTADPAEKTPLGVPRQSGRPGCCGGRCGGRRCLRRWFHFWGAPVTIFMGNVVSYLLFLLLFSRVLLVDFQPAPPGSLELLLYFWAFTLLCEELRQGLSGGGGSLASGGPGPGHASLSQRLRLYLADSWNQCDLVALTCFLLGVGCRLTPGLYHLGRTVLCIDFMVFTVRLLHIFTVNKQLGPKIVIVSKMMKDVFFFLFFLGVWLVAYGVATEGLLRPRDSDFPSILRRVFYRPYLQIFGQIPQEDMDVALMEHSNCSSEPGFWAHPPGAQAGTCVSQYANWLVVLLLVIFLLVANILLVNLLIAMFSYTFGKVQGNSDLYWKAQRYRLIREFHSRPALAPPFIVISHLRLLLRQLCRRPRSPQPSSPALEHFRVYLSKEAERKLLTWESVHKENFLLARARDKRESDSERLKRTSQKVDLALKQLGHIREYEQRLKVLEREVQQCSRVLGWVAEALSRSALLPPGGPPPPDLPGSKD
UniProt Q14134: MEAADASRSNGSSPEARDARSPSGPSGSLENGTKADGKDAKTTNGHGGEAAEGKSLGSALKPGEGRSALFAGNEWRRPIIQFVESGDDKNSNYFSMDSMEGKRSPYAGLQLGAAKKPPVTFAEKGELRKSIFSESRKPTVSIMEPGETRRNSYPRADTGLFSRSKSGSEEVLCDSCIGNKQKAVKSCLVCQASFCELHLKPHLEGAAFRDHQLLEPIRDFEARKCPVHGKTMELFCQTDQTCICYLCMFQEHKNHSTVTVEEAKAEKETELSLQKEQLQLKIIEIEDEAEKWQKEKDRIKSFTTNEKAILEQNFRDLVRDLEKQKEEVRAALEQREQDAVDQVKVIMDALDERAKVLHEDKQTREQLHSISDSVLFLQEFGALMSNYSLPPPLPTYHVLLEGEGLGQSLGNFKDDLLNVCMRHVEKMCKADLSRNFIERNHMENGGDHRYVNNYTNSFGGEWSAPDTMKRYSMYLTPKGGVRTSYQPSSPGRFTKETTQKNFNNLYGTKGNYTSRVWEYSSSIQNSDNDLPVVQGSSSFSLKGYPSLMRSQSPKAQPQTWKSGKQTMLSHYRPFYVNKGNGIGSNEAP

Tests used:
Assay in all cases: log2 fold change, soluble protein after heating vs DMSO (PISA); higher = thermal stabilisation; K562 cells, 10 uM, 30 min; active = over 0.2 and 3.5 SD of the protein, either way, in both replicates (recomputed)
[1] = compound: C[C@H](C1=CC=C(C=C1)C(=O)NC2=C3C=CNC3=NC=C2)N
Summary of the method: (§1)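 For each measurement, 10 μM compound was applied for 30 min to K562 cells at 2×10^6 cells/mL. Aliquots were heated for 3 min across 48°C-58°C, pooled, and extracted in PBS with 0.5% NP-40 at 4°C; the supernatant after 21,000xg for 90 min was soluble protein. This was quantified by TMTpro 16plex LC-MS/MS with channel sums equalised, and thermal stability was reported relative to control samples from duplicates, on a log2 fold-change scale.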

[2] = compound: Cn1cc(-c2ccc3c(c2)CCN3C(=O)Cc2cccc(C(F)(F)F)c2)c2c(N)ncnc21
Summary of the method: as §1

[3] = compound: Cc1ccc(NC(=O)c2ccc(CN3CC[C@H](N(C)C)C3)c(C(F)(F)F)c2)cc1Nc1nccc(-c2cncnc2)n1 [bafetinib]
Summary of the method: as §1

[4] = compound: Cc1cn(-c2cc(NC(=O)c3ccc(C)c(Nc4nccc(-c5cccnc5)n4)c3)cc(C(F)(F)F)c2)cn1 [nilotinib]
Summary of the method: as §1

[5] = compound: Cc1nc(Nc2n[nH]c3c2CN(C(=O)N[C@H](CN(C)C)c2ccccc2)C3(C)C)c2sccc2n1
Summary of the method: as §1

[6] = compound: Cc1ncc(-c2ccnc(Nc3ccc(S(C)(=O)=O)cc3)n2)n1C(C)C
Summary of the method: as §1

[7] = compound: Cn1cncc1[C@@](N)(c1ccc(Cl)cc1)c1ccc2c(c1)c(-c1cccc(Cl)c1)cc(=O)n2C [tipifarnib]
Summary of the method: as §1

[8] = compound: FC(F)(F)c1ccc(/C=C/c2nc(COc3ccc(CCCCn4ccnn4)cc3)co2)cc1 [mubritinib]
Summary of the method: as §1

[9] = compound: C[C@@H]1COCCN1C2=NC(=NC(=C2)C3(CC3)S(=O)(=O)C)C4=C5C=CNC5=CC=C4
Summary of the method: as §1

[10] = compound: C[C@H](Nc1ncnc2nc[nH]c12)c1cc2cccc(Cl)c2c(=O)n1-c1ccccc1 [duvelisib]
Summary of the method: as §1

[11] = compound: Cc1cc(SCc2sc(-c3ccc(C(F)(F)F)cc3)nc2C)ccc1OCC(=O)O
Summary of the method: as §1

[12] = compound: Cc1ccc(C(=O)N(CCCN)[C@@H](c2nc3cc(Cl)ccc3c(=O)n2Cc2ccccc2)C(C)C)cc1 [ispinesib]
Summary of the method: as §1

[13] = compound: Cc1nc(Nc2ncc(C(=O)Nc3c(C)cccc3Cl)s2)cc(N2CCN(CCO)CC2)n1 [dasatinib]
Summary of the method: as §1

[14] = compound: Cn1cc(-c2ccc3nnc(C(F)(F)c4ccc5ncccc5c4)n3n2)cn1
Summary of the method: as §1

[15] = compound: C[C@@H](Oc1cc(-c2cnn(C3CCNCC3)c2)cnc1N)c1c(Cl)ccc(F)c1Cl [crizotinib]
Summary of the method: as §1

[16] = compound: Cc1cc(Nc2cc(CN3CCOCC3)c3nc(C)c(Cc4ccc(Cl)cc4F)n3n2)n[nH]1 [gandotinib]
Summary of the method: as §1

[17] = compound: Cc1cc(Nc2cc(N3CCN(C)CC3)nc(Sc3ccc(NC(=O)C4CC4)cc3)n2)n[nH]1 [tozasertib]
Summary of the method: as §1

[18] = compound: Cc1ccc(-n2nc(C(C)(C)C)cc2NC(=O)Nc2ccc(OCCN3CCOCC3)c3ccccc23)cc1 [doramapimod]
Summary of the method: as §1

[19] = compound: Cc1cccc(CC(=O)N2CCc3c2ccc(-c2cn(C)c4ncnc(N)c24)c3F)n1
Summary of the method: as §1

[20] = compound: CS(=O)(=O)c1ccc(-c2cnc(N)c(C(=O)Nc3ccccc3)n2)cc1
Summary of the method: as §1

Measured: log2 fold change

TRPS1 isoform 2 (UniProt Q9UHF7)
inactive: [1] 0.061 | [2] -0.102

TRAPPC6A isoform 2 (UniProt O75865)
inactive: [1] -0.136 | [3] 0.028 | [4] 0.126 | [5] -0.204 | [6] -0.013 | [2] 0.19 | [7] -0.459 | [8] 0.17

TRADD (UniProt Q15628)
inactive: [9] 0.083 | [10] 0.163 | [11] 0.098 | [12] 0.033 | [4] -0.595 | [5] -0.246 | [13] -0.047 | [6] 0.032 | [14] -0.219 | [8] 0.163

TRMT5 (UniProt Q32P41)
inactive: [15] 0.097 | [9] 0.174 | [16] -0.256 | [17] -0.172 | [18] 0.147 | [3] 0.041 | [19] 0.176 | [4] 0.111 | [5] -0.061 | [6] 0.219

TRAF3 (UniProt Q13114)
inactive: [12] 0.2 | [14] 0.051

TRIM33 isoform 2 (UniProt Q9UPN9)
inactive: [20] -0.086 | [9] 0.122 | [4] -0.464 | [5] -0.096 | [6] -0.034 | [8] 0.129

Quoted from the entries so far (5 entries):
TRAPPC6A isoform 2 (UniProt O75865)
inactive: [1] -0.136 | [3] 0.028 | [4] 0.126 | [5] -0.204 | [6] -0.013 | [2] 0.19 | [7] -0.459 | [8] 0.17

TRADD (UniProt Q15628)
inactive: [9] 0.083 | [10] 0.163 | [11] 0.098 | [12] 0.033 | [4] -0.595 | [5] -0.246 | [13] -0.047 | [6] 0.032 | [14] -0.219 | [8] 0.163

TRMT5 (UniProt Q32P41)
inactive: [15] 0.097 | [9] 0.174 | [16] -0.256 | [17] -0.172 | [18] 0.147 | [3] 0.041 | [19] 0.176 | [4] 0.111 | [5] -0.061 | [6] 0.219

TRAF3 (UniProt Q13114)
inactive: [12] 0.2 | [14] 0.051

TRIM33 isoform 2 (UniProt Q9UPN9)
inactive: [20] -0.086 | [9] 0.122 | [4] -0.464 | [5] -0.096 | [6] -0.034 | [8] 0.129

Additional results.

TNK2 isoform 3 (UniProt Q07912)
inactive: [10] 0.057 | [11] -0.017 | [3] -0.07 | [13] -0.015

TNXB isoform 4 (UniProt P22105)
inactive: [15] -0.022 | [18] 0.037 | [8] 0.028

TRAF3IP1 (UniProt Q8TDR0)
inactive: [15] 0.074 | [1] -0.002 | [10] 0.145 | [11] -0.123 | [18] 0.085 | [12] -0.101 | [13] -0.193 | [2] 0.111 | [14] 0.017

TRIP12 isoform 3 (UniProt Q14669)
inactive: [15] 0.011 | [9] -0.022 | [10] -0.11 | [16] -0.097 | [17] 0.056 | [11] 0.074 | [18] 0.004 | [12] 0.137 | [3] 0.073 | [19] -0.059 | [4] 0.031 | [5] -0.018 | [13] -0.352 | [6] 0.021 | [14] 0.168 | [8] 0.091

TNIK isoform 3 (UniProt Q9UKE5)
inactive: [15] -0.083 | [1] 0.047 | [10] 0.07 | [16] 0.027 | [17] -0.051 | [11] 0.019 | [18] 0.098 | [12] -0.118 | [3] 0.046 | [19] -0.005 | [13] -0.072 | [2] 0.1 | [14] -0.013 | [7] -0.116 | [8] 0.053

TSC1 (UniProt Q92574)
inactive: [15] 0.035 | [1] 0.124 | [10] 0.16 | [17] -0.109 | [11] 0.117 | [18] 0 | [12] -0.254 | [13] -0.324 | [2] -0.062 | [14] -0.04 | [7] -0.129

TRPM4 (UniProt Q8TD43)
inactive: [20] -0.001 | [9] 0.19 | [10] -0.151 | [11] 0.171 | [13] -0.131

TNIP1 (UniProt Q15025)
inactive: [20] 0.053 | [9] 0.024 | [17] 0.078 | [12] 0.007 | [3] -0.076 | [14] -0.029 | [7] 0.063 | [8] 0.3

TRA2A (UniProt Q13595)
inactive: [17] -0.113 | [3] -0.085 | [4] -0.115 | [5] -0.061 | [6] -0.104

TROAP (UniProt Q12815)
inactive: [9] -0.086 | [16] -0.019 | [12] -0.267 | [3] -0.126 | [19] -0.015 | [14] -0.194

TPD52 isoform 3 (UniProt P55327)
inactive: [10] -0.02 | [11] -0.218 | [3] 0.207 | [13] 0.036

TRIM65 (UniProt Q6PJ69)
inactive: [15] -0.09 | [1] 0.302 | [10] 0.001 | [11] -0.301 | [18] 0.049 | [12] -0.101 | [13] 0.18 | [2] 0.003 | [14] -0.045

TRIM29 (UniProt Q14134)
inactive: [8] 0.016

TRPM7 (UniProt Q96QT4)
inactive: [15] 0.026 | [9] -0.142 | [1] 0.164 | [10] -0.046 | [16] 0.097 | [17] -0.002 | [11] 0.04 | [18] 0.028 | [12] 0.03 | [3] -0.118 | [19] 0.004 | [13] -0.026 | [2] 0.034 | [14] 0.046 | [7] -0.01 | [8] -0.024

TRIM21 (UniProt P19474)
inactive: [1] 0.209 | [10] -0.047 | [17] -0.14 | [11] 0.102 | [3] 0.054 | [4] 0.113 | [5] -0.392 | [13] -0.142 | [6] -0.527 | [2] 0.122 | [7] -0.049 | [8] 0.136
